Negatives hold for the conditions tested. Tags and fusion partners may be left off the protein sequences shown. For some assays here: The exact form of at least one protein or probe is not confirmed.

One series deals with T1, ORF1p WT (111p) (UniProt Q9UN81).
T1 sequence (looked up, limits assumed): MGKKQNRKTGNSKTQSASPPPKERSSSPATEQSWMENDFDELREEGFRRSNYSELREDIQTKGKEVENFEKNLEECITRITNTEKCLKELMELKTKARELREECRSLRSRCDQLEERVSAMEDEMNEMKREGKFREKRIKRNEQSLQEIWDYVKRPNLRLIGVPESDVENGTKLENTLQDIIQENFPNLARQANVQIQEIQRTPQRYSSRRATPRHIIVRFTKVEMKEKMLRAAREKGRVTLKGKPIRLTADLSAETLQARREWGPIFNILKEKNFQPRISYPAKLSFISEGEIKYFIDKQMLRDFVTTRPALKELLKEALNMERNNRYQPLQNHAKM
In words: confocal fluorescence with optical tweezers. As to conditions: 1 nM ORF1p fully compacted on 8.1 knt ssDNA, no ternary complex (not a test of free dT20 binding); 21 C (stated for m128p); 8.1 knt ssDNA held at 5-50 pN; recombinant protein; protein details: N-terminal His; label: 5' Alexa488; single-stranded DNA.

The target in series [1] is T2, m128p (CTD, RRM, 3.5 of 14 CC heptads) (UniProt Q9UN81).
T2 sequence (looked up): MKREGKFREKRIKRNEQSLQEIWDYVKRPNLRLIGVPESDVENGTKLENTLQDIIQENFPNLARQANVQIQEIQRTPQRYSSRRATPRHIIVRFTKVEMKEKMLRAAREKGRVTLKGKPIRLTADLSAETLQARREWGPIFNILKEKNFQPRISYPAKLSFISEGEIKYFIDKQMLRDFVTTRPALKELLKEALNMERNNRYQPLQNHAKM
In words: confocal fluorescence with optical tweezers. Particulars: 30 nM m128p with tethered 8.1 knt ssDNA, no ternary complex (not a test of free dT20 binding); 21 C (stated for m128p); 8.1 knt ssDNA held at 5-50 pN; recombinant protein; residues 128-338; protein details: N-terminal His; label: 5' Alexa488; single-stranded DNA.

As for TTTTTTTTTTTTTTTTTTTT [Alexa488-dT20], the binding result (in the series with ORF1p WT (111p); in series [1]) was “no binding” in each case.

These data come from PMC11662928, “L1-ORF1p nucleoprotein can rapidly assume distinct conformations and simultaneously bind more than one nucleic acid”.
